Laboratory results: PMC5481654, “Identification of the anti-mycobacterial functional properties of piperidinol derivatives” (British journal of pharmacology, 2017)

Test system: M. smegmatis resistant mutants
Type: cell-based

SMILES | increase of MIC of the mutants compared with wild-type | increased resistance (cross-resistance) compared with wild-type
CN1CCC(O)(c2ccccc2)C(C(=O)c2ccccc2)C1 (stereo not shown) [Compound 1] | fivefold | between twofold and threefold
CN(CCC(=O)c1ccccc1)CCC(=O)c1ccccc1 [Compound 2, 3,3′-(methylazanediyl)bis(1-phenylpropan-1-one)] | two- to threefold | twofold to threefold
